# Laboratory results reported in PubChem BioAssay AID1347423 (Functional Genomics Laboratory (NCATS/FGL), 2020).
# In all, about 52,000 sequences went through this assay and about 210 (0.4%) were called active.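 How the source made its calls: active means gene whose silencing raises cell survival under the drug, median off-target-corrected z-score across its silencing RNAs 2 or more; inactive means the rest.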 This is one part of the list.
# Experiment: Resistance to Poly (ADP-Ribose) Polymerase inhibitor: Gene Identification via Genome-wide siRNA Screen
# Conditions: mouse BRCA2 R2336H ES cells, olaparib, CellTiter-Glo viability; active compounds read high
# How it was run: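 Mouse BRCA2 R2336H ES cells were reverse-transfected with siRNA (20 nM final), treated at 48 h with 500 nM olaparib, and read by CellTiter-Glo after 72 h. Scores: MAD-based z per siRNA, median per gene, seed off-target correction.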
row,Sequence,z-score
1,CCGAGAGUUAACCUCAAAATT against 4931440P22Rik,inactive: 0.912
2,GGGAUUAAUACAGCAAUUUTT against Ddx24,inactive: -2.06
3,GGGUAUGGUUCUGUUGGCATT against Pxmp4,inactive: 0.275
4,GGCUGUGUAUGAAACAUUUTT against E430021N18Rik,inactive: 0.949
5,GGGCAUGAUUUUCACUUCCTT against Gpr150,inactive: 0.284
6,GCUGCAUUGUGGAUUAUAUTT against Thumpd1,inactive: -0.56
7,GGAGAUAUGGAAGAAGACATT against Pja2,inactive: -0.828
8,GGGACACUGGGAAGAAACATT against 2810021J22Rik,inactive: -2.45
9,GGAGGGAAUAUGCAAAUAGTT against E330017A01Rik,inactive: 0.773
10,CCGAAUGACGGUUGAAUAUTT against 9430034D17Rik,inactive: -2.39
11,CGAUAAGGGCUGUUUAUAUTT against Rnasel,inactive: 0.92
12,GGGAAAAAUGGACUAGCAUTT against Elys,inactive: -1.68
13,GGUCUUCGAUGUCUUGUAGTT against Fbxl11,inactive: 0.0439
14,GGUUACUCUCCAGAUGAAATT against Srpx2,inactive: 1.27
15,GGGAUGAUUUUGAGAUUUUTT against Dm15,inactive: 0.206
16,GGUGACUCGGCUAUUUUCCTT against DXImx40e,inactive: 2.21
17,GGUCAUUCUGGCUUAGUAATT against Hira,inactive: -1.7
18,GGACAUCAGAUGAGAAUGUTT against Rab19,inactive: -1.78
19,GGCUAUUCCUUUGUGACCATT against Actg2,inactive: -0.271
20,GGAUCUGGACUUAAUGCUCTT against Tcfeb,inactive: 1.46
21,GGUUGUCAAAGUCAAACCATT against H1f0,inactive: -0.503
22,GCAGUAUGAGGUAAAUUAUTT against 9430069J07Rik,inactive: 0.127
23,CGAAGCCUAUCGAAAAGUCTT against Adcyap1,inactive: -1.35
24,GGGUACCUAGGGUUAUGAATT against Hps6,inactive: 0.234
25,GGUUUGAGAAUUUGAAGGUTT against Gtlf3a,inactive: 0.33
26,CCUAUAACUCCAAGGAUACTT against MGC58608,inactive: -0.461

# Looked up one by one from the entries so far:
row,Sequence,z-score
17,GGUCAUUCUGGCUUAGUAATT against Hira,inactive: -1.7
23,CGAAGCCUAUCGAAAAGUCTT against Adcyap1,inactive: -1.35

# Continuation:

row,Sequence,z-score
1,GGCUUUAUAAUGUUCUGUUTT against 1810009B06Rik,inactive: -2.16
2,CCUCAAUUGCAUGUGACCUTT against Itgb1bp1,inactive: -0.642
3,GAAUCACAGGACUUCUGCATT against Bcl2,inactive: 0.797
4,GCAAGAAGUUCCUAUCAUCTT against Polr2b,inactive: -2.2
5,GGAACAUGUCCAUUAUCACTT against V1re4,inactive: 1.5
6,GGAGAAAUUUAAGAAGAGUTT against Xrcc5,inactive: 1.05
7,GGUUGAAAUUCGGAAAAAATT against Mnat1,inactive: 0.674
8,GCUCCACAUGAGAUUCUCATT against Sec14l1,inactive: -0.222
9,GGCACCUUUCAACGUAACCTT against Ntn3,inactive: 0.321
10,GCAAACUUUUUCUGUAAAGTT against Apg4a,inactive: -0.649
11,GCAGCGAGUACUAUAUCCGTT against BC059845,inactive: 0.321
12,GCAAUGGACCUGGUACAAGTT against Myg1,inactive: -0.258
13,GUAACUCGCUUCUUGGUGGTT against LOC545558,inactive: 0.19
14,GGUCACAACUUUUGAGCACTT against Gna11,inactive: 0.648
15,GCUGAUUGAGCAUCCGAUGTT against Ggt1,inactive: 1.79
16,GCUUAUGAUUCCAAGGCAGTT against Serpina6,inactive: -0.0529
17,GAAAGAUGGAGACACCCUCTT against 2010319C14Rik,inactive: -1.49
18,GCUUUACUCUAAUUGAUGUTT against 2310010I16Rik,inactive: -0.126
19,GGGUGUGAUCCAAGCUAUCTT against Rtn4,inactive: 0.173
20,GAAGAGAACGCGUUUUUGGTT against Defcr5,inactive: 1.31
21,GGUGGAACCUCUGAGAAAATT against 4930562D19Rik,inactive: -0.499
22,GGUCAAAGUGUGUUAAGUUTT against 2700094F01Rik,inactive: -0.383
23,GGUUCGCCCUUGGAAAUGGTT against Dmap1,inactive: -0.757
24,CCACCCUGAUUUAAGAAGGTT against Ndufs3,inactive: -0.216
25,GGGUCCAUGAACUCAAGAUTT against BC023814,inactive: -0.438
26,GGAAGGUCAGAACAACGACTT against Tpcn1,inactive: -0.502

row,Sequence,z-score
1,CCAUCAAAGUCAUCGACGGTT against Birc6,inactive: -1.07
2,GGAAUACCUCUACUGACAGTT against Rage,inactive: 0.757
3,GGAACUGUAUGAAAUGCUGTT against Pdgfb,inactive: -0.774
4,CCAAGUAUAGCUCACAUAATT against 9130214H05Rik,inactive: -0.577
5,CGUGGAGUGUUAAAGAAUUTT against Il23r,inactive: 0.779
6,GGUCUUCAGAUAAUCUUCCTT against Dbccr1,inactive: -0.121
7,GGCCCAUCUAAGCUACAGATT against Rab40b,inactive: 1.01
8,GGAAACUUCUGCACUUGGGTT against 4930474M22Rik,inactive: 1.02
9,CCGGUGGUAAUUUCACCCUTT against C2,inactive: 0.15
10,GGAACUCAUUCUAUUGCACTT against A630014H24Rik,inactive: 0.188
11,CCUCAGAGUCCCUAGAAAATT against Gm93,inactive: 0.712
12,GCUAUUUUCAGCGAGCUGUTT against Lmo3,inactive: -0.468
13,GGCAUUGAUUGAUUCCUGUTT against Dnpep,inactive: -0.356
14,GGUGACUGACAUGAUGAUATT against Pard6b,inactive: -1.65
15,GGAAAUUGAUAAAGACAGATT against D19Ertd737e,inactive: -0.811
16,GGGAAGUCACUUUUGUUCCTT against Top2a,inactive: -1.25
17,GGCGGUACCUCUUCUUCAUTT against Aipl1,inactive: 0.293
18,GGAUUCAUCAUCUACCCGGTT against C1ql4,inactive: 0.998
19,GCUGUCUUUGAACUAUAUATT against Cd200r4,inactive: 1.7
20,GCAGGCUGCUCGAGAUAAATT against Mitc1,inactive: -1.43
21,CCGAAAUCCUACAUAUAUGTT against B430209F14Rik,inactive: -0.628
22,GGUAUAGAUCAGAAGAACUTT against 3110001I22Rik,inactive: -0.505
23,GGAAGCAUCCUUUGAUGAGTT against Afm,inactive: -0.168
24,GCGGACAGGCACAGAAAAATT against Usp3,inactive: 0.156
25,GGAACGAUAAGCAACUUUGTT against BC003993,inactive: -1.89
26,GCAAGGAAAAUCUAUACCGTT against Rgs2,inactive: -0.0748

# Rewritten as tab-separated lines: entries from further up.
row	Sequence	z-score
24	GGGUACCUAGGGUUAUGAATT against Hps6	inactive: 0.234
12	GCUAUUUUCAGCGAGCUGUTT against Lmo3	inactive: -0.468

# (cont.)

row,Sequence,z-score
1,GUUCAAGAGGGAGCUGGAATT against Pomc1,inactive: 1.41
2,GCCAGUCCUGAUAGCAUCATT against Psx1,inactive: 0.143
3,GCUUUACGUUCAAGUUUAGTT against Ranbp2,inactive: -2.81
4,GAACUGGAGAUCUUCGAACTT against Ltc4s,inactive: -1.53
5,CAUGUUAUCACUUUUUGGCTT against 2310002F18Rik,inactive: 0.73
6,GGAAAUGACCUACGAAGAATT against C230090D14,inactive: 2.31
7,GGUCGCCUAUUUCAAGAUATT against Lepre1,inactive: -0.444
8,GGUAGCUAUCAAGGUCAUCTT against Hunk,inactive: -0.704
9,CCACUAUUAAACUUCUCAATT against Pex3,inactive: -0.153
10,GGUUUGUUAGACCAUUACGTT against Fgfr1op,inactive: 0.0795
11,CCUUGUAUUCCCAUCAUGCTT against AI467606,inactive: 1.49
12,GGCCACCUUCUUUGAGGUATT against Snai1,inactive: 0.157
13,GGAAAGAGAACAUAAAAGATT against Pla2g4a,inactive: -0.269
14,GCACUAAGUCCCAUGUGUCTT against Trim11,inactive: -0.803
15,GCAGACGAGUACCUAGAAATT against 9830147J24Rik,inactive: -2.66
16,GGCGACAUUACAGAAUUGGTT against Iqsec2,inactive: 1.21
17,GGCGAAAAGCGACGCGGCCTT against Basp1,inactive: 0.954
18,GGAUUACAAGACCAUAGAUTT against Ocilrp1,inactive: 0.0141
19,CGGCUCUUAACAUUUUCAGTT against Eef2,inactive: -2.06
20,CCAAUCCAAACGAAGUUAATT against Rgs9,inactive: 0.136
21,GCUAUGAGAUGUAUCCCGGTT against E330017N17,inactive: 0.336
22,GGAUGUUGCUCCAAGUGGATT against Gpr66,inactive: 0.667
23,GGCUGACAUUAAAAAGGCATT against 4732437J24Rik,inactive: 0.845
24,GGUGUGUUUGCUAUUUCCATT against Olfr259,inactive: 1.28
25,GGAAGCAAACUUAAAGUGUTT against Ewsr1,inactive: -1.5
26,GCAAAUGUUCGGUAAUUUGTT against BC003281,inactive: 0.377
